Data as given in PubChem BioAssay AID686943 (Drosophila RNAi Screening Center, 2013)
In all, the deposit lists about 23,000 reagents; shown is a random part of those that have a named target and a result. 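Extra replicates exist only for a retested subset of genes; insulin dose and duration not given; both raised and lowered dpERK matter.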 Reagents against one gene are numbered here. Further read-outs or replicates are left out here. The record does not give: the amount of reagent, the time to read-out.

Assay: 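Knockdowns that increase or decrease active ERK after insulin receptor stimulation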 (primary screen)
Cell system: Drosophila S2R+ haemocyte-like cells expressing YFP-tagged ERK (Rolled)
Reagents: long dsRNA against Drosophila genes
Conditions: insulin stimulation versus unstimulated cells; dose and duration not given
Read-out: 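Per-plate z-scores of phospho-ERK immunostaining normalised to YFP-tagged ERK, measured with and without insulin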
Scale: replicate 1, z-score of dpERK with insulin: higher = more active ERK per ERK-YFP after insulin

ZnT41F
- replicate 1, z-score of dpERK with insulin: 0.09

VhaSFD
- replicate 1, z-score of dpERK with insulin: -1.36

COX6AL2
- replicate 1, z-score of dpERK with insulin: 0.84

CG2931
- replicate 1, z-score of dpERK with insulin: 0.55

CG14411
- replicate 1, z-score of dpERK with insulin: -0.27

Doc2
- replicate 1, z-score of dpERK with insulin: 0.12

CG12971
- replicate 1, z-score of dpERK with insulin: 0.83

CG8292
- replicate 1, z-score of dpERK with insulin: -0.82

Sas-6
- replicate 1, z-score of dpERK with insulin: -0.24

Gapdh1
- replicate 1, z-score of dpERK with insulin: -1.05

beat-VII #1
- replicate 1, z-score of dpERK with insulin: 1.39

beat-VII #2
- replicate 1, z-score of dpERK with insulin: 0.64

beat-VII #3
- replicate 1, z-score of dpERK with insulin: 0.14

beat-VII #4
- replicate 1, z-score of dpERK with insulin: -0.1

mbc
- replicate 1, z-score of dpERK with insulin: -0.79

CG13245
- replicate 1, z-score of dpERK with insulin: 0.3

CG8562
- replicate 1, z-score of dpERK with insulin: -0.19

Dis3l2
- replicate 1, z-score of dpERK with insulin: -0.23

CG33095
- replicate 1, z-score of dpERK with insulin: -1.11

sac
- replicate 1, z-score of dpERK with insulin: 1.06

CG9667
- replicate 1, z-score of dpERK with insulin: 1.69

CG12477
- replicate 1, z-score of dpERK with insulin: -0.65

CG5506
- replicate 1, z-score of dpERK with insulin: 1.14

MnM
- replicate 1, z-score of dpERK with insulin: -0.01

CG7675
- replicate 1, z-score of dpERK with insulin: 0.68

flr
- replicate 1, z-score of dpERK with insulin: 0.19

Ir56b
- replicate 1, z-score of dpERK with insulin: 0

CG31948
- replicate 1, z-score of dpERK with insulin: -1.18

CG12912
- replicate 1, z-score of dpERK with insulin: -6.08

CG3515
- replicate 1, z-score of dpERK with insulin: -0.82

CG13690
- replicate 1, z-score of dpERK with insulin: -0.26

Look-ups from above:
For “replicate 1, z-score of dpERK with insulin”, CG8562 reads -0.19
Entry for MnM under “replicate 1, z-score of dpERK with insulin”: -0.01
Entry of beat-VII #2 under “replicate 1, z-score of dpERK with insulin”: 0.64
